Measured values taken from US11628186B2, “Method and composition for the reduction of viral replication, duration and spread of the COVID-19 and the flu” (priority 2017, dated 2023).
Some results were stated once for a whole list of compounds, not compound by compound.

System: patients with lung diseases including COPD
Assay: Comparison of inhaled salts of pyruvate, 5 ml of 0.5 mM solution (Table I)
Conditions: 5 mls of a 0.5 mM pyruvate inhalation solution in COPD and asthmatic patients
Protocol: All previous studies using pyruvate to treat Allergic Rhinitis, Asthmatic and COPD patients used only the sodium salt form of pyruvic acid in saline. The drug products that were tested in the six Phase I/II clinical trial were differing concentrations of sodium pyruvate dissolved in 0.9% sodium chloride solution (Saline). These drug products contained 0.5 mM, 1.5 mM, or 5.0 mM of sodium pyruvate in physiological saline. They were administered to normal volunteers and COPD and asthmatics by inhalation therapy. […] Various sodium pyruvate solutions were evaluated in the lungs for their ability to enhance FEV1 values and reduce coughing, and lung tightness.
The amount of the salts delivered in the 5 ml's of the 0.5 mM pyruvate solutions were compared to the amounts of the salts in 5 ml's of human blood. […] When ethyl pyruvate reacts with oxygen radical like hydrogen peroxide, it is converted to ethane and alcohol and Co2 and acetate. Ethane and alcohol are lung irritants.
This formula can also be made by adding 3% calcium phosphate or dicalcium phosphate to the standard 0.5 mM to 30 mM sodium pyruvate saline solution see Table I.

For `CC(=O)C(=O)[O-].[Li+]` [Lithium, lithium pyruvate], the “FEV1” value was 4-6%.
